Measured values as given in the supplement of paper PMC3334620.
Over roughly 33,000 sequences, “E-score (-0.5 to 0.5)” has its median near -0.0034; the highest 2% begin near 0.25. The list shows a part of the results.

What follows are sequences tested against T1, Yap3 (UniProt P38749) (assay: PBM E-score (8-mer binding enrichment) (E-score (-0.5 to 0.5)); higher = stronger / more preferred TF binding). Conditions: protein concentration: 100 nM; construct: GST-full length.
T1 sequence: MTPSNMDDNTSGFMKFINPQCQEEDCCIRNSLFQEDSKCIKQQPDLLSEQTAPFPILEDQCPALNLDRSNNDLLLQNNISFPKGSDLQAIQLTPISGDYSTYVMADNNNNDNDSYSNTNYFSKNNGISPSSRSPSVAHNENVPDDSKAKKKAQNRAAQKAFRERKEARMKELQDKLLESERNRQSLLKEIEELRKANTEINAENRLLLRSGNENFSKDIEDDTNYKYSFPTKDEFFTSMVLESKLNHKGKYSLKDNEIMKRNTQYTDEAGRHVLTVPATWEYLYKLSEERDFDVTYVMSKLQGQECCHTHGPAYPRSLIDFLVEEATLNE
Experimental: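 Universal 'all 10-mer' protein binding microarrays (Agilent AMADID 015681) probed with GST-tagged S. cerevisiae TFs (full-length or DBD) made by in vitro transcription/translation (PURExpress), about 100-200 nM. Bound TF was detected with fluorescent anti-GST. Each ungapped 8-mer (which stands for itself and its reverse complement) is scored by the PBM enrichment score (E-score), a modified Wilcoxon-Mann-Whitney statistic from -0.5 to +0.5, computed with the Universal PBM Analysis Suite. Scale: above 0.35 generally sequence-specific binding.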

Sequence | PBM E-score
ATACAGGG | 0.14
CTCTACTA | 0.166
CAGTCTCG | -0.163
CCGGATCA | 0.0226
GTTGGCGA | -0.04
AATACGAT | 0.187
CCGATGCA | -0.102
GTACTAGA | 0.149
AAGCCTGA | -0.217
ACATCGGG | -0.00035
GAACCTAC | 0.00034
ACTTAGTA | 0.181
CGCGGTCA | -0.0274
ACTTACAG | 0.017
AGTACGTG | -0.0755
ATCAACGC | 0.102
GGTGCCCA | -0.208
GCCGCAAC | 0.00606
ATACAGAG | -0.0144
CTTGCAAC | 0.102
GCTGACAA | 0.0561
AAAATCCC | 0.0853
ACTTGTGA | 0.0541
AAGGTATG | 0.1

Sequence | PBM E-score
ATTCGAGA | 0.0426
AGAAAGCA | 0.232
TGAAAACA | 0.0878
AACACAAG | 0.0649
CTCCCGCA | -0.0925
GACATCAA | 0.111
GGTAGTAC | -0.0701
ACCCACCC | -0.0138
AGCTAGCC | -0.0749
CCTCAACC | -0.136
AAGTGGGA | 0.217
CTCTCGGC | -0.0816
GCCCGAAC | -0.0372
ACTCCGTC | 0.0132
AGTCCCTC | -0.316
GGAAGGAA | -0.0948
CACTTCAG | -0.0216
ACCGTACT | 0.0135
AATCCTCT | -0.127
ACACTTAT | 0.087
CTGACCCC | -0.391
ACCGTTGA | -0.076
AACACAGC | 0.204
CGGCTTGC | -0.0135

Already shown: an excerpt of the list.
Sequence | PBM E-score
CTCTCGGC | -0.0816
GCCCGAAC | -0.0372
ACTCCGTC | 0.0132
AGTCCCTC | -0.316

Additional records.

Sequence | PBM E-score
ATCTATAC | 0.0727
CCACTCCC | -0.266
CTCAACAC | 0.0584
CAGGCGGC | -0.314
CATATCGA | 0.0343
GGTTGGGA | -0.125
AGGAATAG | 0.0701
ACTCACAG | 0.037
CTCCGATC | -0.0909
CTCGGCCC | -0.249
TGCCTGAA | -0.117
AATCTCCG | 0.0189
GCTGGAAA | 0.033
GAGGCATA | -0.00096
CATTTCAA | 0.265
AGCATTAC | 0.0534
AGTGCTTC | -0.0103
GGGATGAA | -0.103
AAAACTTC | 0.00687
GAAGGTGA | 0.024
ACTACTGA | -0.143
ATCGCCTC | 0.139
ATAAACCA | 0.0561
AAAGTATC | 0.17

Sequence | PBM E-score
ACTGCCGG | 0.0264
ATGGACGC | 0.0748
AGACGTAG | -0.0624
AGTAACAT | 0.193
AGCATGAT | 0.0213
GGGATCCC | -0.129
ATGCCAGC | -0.2
CAGTCTCA | -0.148
AGGGCACA | 0.0492
GATCCTCA | 0.0481
GAATAGGC | -0.0903
CGGCCTCC | -0.187
AAACGATC | 0.0617
CGCGAACG | 0.0419
AGCTGACC | -0.129
AAGGCCGA | -0.0574
ACCTACGC | -0.00632
TCATACCA | 0.131
ACAGGATA | -0.0182
AACATACC | 0.0597
TCTCCGAA | -0.0745
AGATTGAA | 0.0959
